PubChem BioAssay AID1347150 (National Center for Advancing Translational Sciences (NCATS), 2019)
“And” between values parts separate entries of the source, which are not always exact repeats. Identical values can stand only once. The shares of active, inactive and inconclusive entries below differ from those in the screen. Potencies beside an inconclusive call are fits to weak or partial responses and may not hold up. The source made the active and inactive calls. Calls come from the whole dose curve; as a rule, active = well fitted curve in the direction sought with a large enough effect; inconclusive = small, poorly fitted or top-dose-only effect, or another doubt; inactive = no such curve, though single readings can be large or run the other way.

Tested on: Zika virus NS2B-NS3 protease (linked)
Experiment: Optimization screen NINDS AMC qHTS for Zika virus inhibitors: Linked NS2B-NS3 protease assay
Conditions: recombinant linked NS2B-NS3 protease, AMC fluorogenic substrate; series mostly up to 52.5 µM; activity change, negative = inhibition: at the top concentration
Excerpt: Avindra Nath, Ph.D., National Institute of Neurological Disorders and Stroke (NINDS), Bethesda, MD
Radhakrishnan Padmanabhan, Ph.D., Georgetown University (GU), Washington D.C.
Zika Virus causes congenital defects, including microcephaly and is associated with Guillain-Barre syndrome, eningoencephalitis and myelitis in infected adult. […] Using a target-based approach, we hope to establish a screening paradigm to uncover novel, cell-active NS2B-NS3 protease (Zika Virus) specific inhibitors from NCATS' collection of small molecules using qHTS.
Four assay panel was created to identify potential Zika Virus inhibitors. Namely, (1) GU unlinked NS2B-NS3 AMC tagged protease qHTS, (2) GU unlinked NS2B-NS3 Rhodamine tagged protease qHTS, (3) NINDS linked NS2B-NS3 AMC tagged protease qHTS, (4) NINDS linked NS2B-NS3 Rhodamine tagged protease qHTS. Active compounds were re-acquired and re-screened to confirm inhibition. Inhibitors were further screened against various confirmatory and counterscreens in dose response format.
Early Translation Branch (ETB)
National Center for Advancing Translational Sciences (NCATS), Rockville, MD
National Institute of Health (NIH), Bethesda, Maryland
For the linked assay, Nath lab (NINDS) provided the purified linked NS2B-NS3 protease which is consists of hydrophilic domain of NS2B linked to the NS3 protease domain by a flexible (-GGGGSGGGG-) linker. Control compound aprotinin is obtained from Thermo Scientific (#78432; Waltham, Massachusetts). NS2B-NS3 AMC substrate (Bz-Nle-Lys-Arg-Arg-AMC; Nle-KRR-AMC) purchased from Bachem (#I-1995; Torrance, CA). Ac-VKTGKR-AMC purchased from Genscript or Bachem, Ac-FAAGKR-AMC purchased from Genscript, Ac-GLVKRR-AMC purchased from Genscript, Ac-LKKR-AMC purchased from Genscript.
NINDS AMC linked NS2B-NS3 protease qHTS protocol:
Briefly, 3 microL of Zika virus linked NS2B-NS3 protease (1 nM for linked final concentration), in assay buffer (10 mM Tris-HCl pH 8.0 with 0.01% Tween 20) was dispensed into a 1,536-well solid-bottom black plate (Greiner Bio One, Monroe, NC). Twenty-three nL of compounds (final concentration range 7.28 nM to 114 microM) or control Aprotinin (final concentration range 3.47 nM to 114 microM) were transferred via Wako Pin-tool (Wako Automation, Richmond, VA). Samples were incubated (room temperature, protected from light) for 15 minutes followed by a 1 microL AMC substrate addition of (final concentration of 10 microM; Km = 18.3 µM). Plates were then read immediately on a ViewLux High-throughput CCD imager (PerkinElmer, Waltham, MA) equipped with standard UV fluorescence optics (340(30) nm excitation, 450(20) nm emission) then incubated (room temperature, protected from light) for 15 minutes (~20% conversion). The change in fluorescence intensity over the 15-minute reaction period was normalized against no-inhibitor and no-enzyme controls and the resulting percent inhibition data were fitted to a 4-parameter Hill equation. Aprotinin was used as the intraplate control.

| SMILES | Potency | activity change, negative = inhibition |
| --- | --- | --- |
| O=C1c2c(O)ccc([N+](=O)[O-])c2C(=O)c2c([N+](=O)[O-])ccc(O)c21 | active: 44.1 µM and inconclusive: 44.1 µM [inhibitor, partial curve] | – |
| COc1c(C)c2c(c(O)c1C/C=C(\C)CCC(=O)OCCN1CCOCC1)C(=O)OC2 | inconclusive: 27.1 µM [inhibitor, single point] | – |
| CC(C)C[C@H](NC(=O)[C@H](Cc1ccccc1)NC(=O)c1cnccn1)B(O)O | – | inactive: 7.56% |
| CCCCC(CC)CN=C(N)NC(N)=NCCCCCCN=C(N)NC(N)=NCC(CC)CCCC (centres undefined) | active: 19.2 µM | – |
| Oc1cc2ccccc2c2ccccc12 | inconclusive: 44.1 µM [inhibitor, partial curve] | – |
| Cc1nc(Nc2ncc(C(=O)Nc3c(C)cccc3Cl)s2)cc(N2CCN(CCO)CC2)n1 | active: 355 µM | – |
| O=C(O)c1ccc(-n2nc(-c3ccccc3O)nc2-c2ccccc2O)cc1 | inconclusive: 21.5 µM [inhibitor, partial curve] | – |
| CNC(=O)c1cc(Oc2ccc(NC(=O)Nc3ccc(Cl)c(C(F)(F)F)c3)cc2)ccn1 | inconclusive: 1.39e-05 µM [inhibitor, full curve] | – |
| CCCCCCCCc1ccc(CCC(N)(CO)CO)cc1 | inconclusive: 42.9 µM [inhibitor, partial curve, poor fit] | – |
